Measurements as given in the supplement of paper PMC11006884.
The entries are a selection whose mix differs from that of the whole data set.

The targets below were run with COC(=O)C#Cc1ccccc1 [methyl 3-phenylpropiolate] (assay: log2 ratio of iodoacetamide-alkyne labeling of the cysteine site, DMSO over compound (competition); higher = stronger covalent engagement of the cysteine by the compound, active = 1 or more). Details: 500 µM; treatment time 1 h; system: HEK293T cell lysate.
Outline: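 Reporter intensities give each cysteine's log2 competition ratio as the mean of control channels over the mean of compound channels. The samples were HEK293T lysate (2 mg/mL) given vehicle or electrophile (500 µM, 1 h, ambient temperature), then iodoacetamide alkyne (1 h), followed by click coupling to sCIP-TMT reagents, pooling, trypsin digestion overnight at 37 °C, streptavidin enrichment, acid elution, Orbitrap Eclipse LC-MS/MS with FAIMS and FragPipe quantification. Duplicate channels and three replicates were run, and cysteines quantified in only one replicate were discarded.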

log2 ratio of iodoacetamide-alkyne labeling, inactive:
ISYNA1 C541 (UniProt Q9NPH2) 0.452
XAB2 C86 (UniProt Q9HCS7) -0.243
XAB2 C66 (UniProt Q9HCS7) 0.489
XPNPEP1 C502 (UniProt Q9NQW7) 0.215
EHMT1 C265 (UniProt Q9H9B1) 0.518
RNPEP C254 (UniProt Q9H4A4) -0.0735
NIT2 C146 (UniProt Q9NQR4) 0.119
EXOSC5 C26 (UniProt Q9NQT4) 0.995
C11orf68 C199 (UniProt Q9H3H3) -0.0264
PPA2 C302 (UniProt Q9H2U2) -0.114
CACYBP C173 (UniProt Q9HB71) 0.182
ZNF106 C1069 (UniProt Q9H2Y7) 0.3
TM9SF3 C428 (UniProt Q9HD45) -0.0181
OLA1 C55 (UniProt Q9NTK5) 0.0695
COPS7B C240 (UniProt Q9H9Q2) 0.186

Pulled one by one from above:
log2 ratio of iodoacetamide-alkyne labeling, inactive:
ZNF106 C1069 (UniProt Q9H2Y7) 0.3
C11orf68 C199 (UniProt Q9H3H3) -0.0264
